This assay in a line: qHTS Assay for Modulators of Lamin A Splicing. The note with it: HeLa LMNA splicing GFP/RFP minigene ratio, 48 h. The procedure, abridged:
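Read-out is the ratio of GFP to DsRed2 object intensity, acquired by 488 nm laser-scanning cytometry on HeLa lamin A-EGFP minigene reporter cells. Compound incubation 48 hrs at 37 °C in Opti-MEM with 2% FBS; DMSO 0.5% final.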
(Quantitative high-throughput screening tests each substance at several concentrations.)

The mark [1] stands for this setting: measured here: RFP viability control channel.
[2] abbreviates: measured here: GFP splicing reporter channel.

The structures appear in SMILES notation. The list shows a part of the results. The main result of the screen is listed elsewhere. These columns were measured beside it and carry no call. The list favours compounds with an active or inconclusive main result. The note in brackets gives the kind of curve behind each potency; many fits are weak.

As usually defined, the AC50 is the midpoint of the concentration-response curve, whichever way the signal moves.

As to `CC(Oc1ccc(Br)cc1)C(=O)Nc1ccncc1` (configuration not stated), under setting [1], the AC50 is 14.1 µM [rising, partial curve, poor fit]. For the compound `O=C(OCCOCCO)c1ccccc1Nc1cccc(C(F)(F)F)c1`, the AC50 is, setting by setting: under setting [2], 0.0562 µM [falling, full curve]; under setting [1], 0.0501 µM [falling, full curve].

As to `CCOC(=O)c1oc2ccc(S(=O)(=O)n3nc(-c4ccc(OC)cc4)cc3N)cc2c1C`, the half-maximal activity concentration (AC50) under setting [1] was 10 µM [rising, partial curve]. On to `CN(C)c1ccc(CNC(=O)Cc2ccc(NC(=O)N3CCCCc4ccccc43)cc2)cc1`, for which the AC50 under setting [2] was 0.355 µM [falling, full curve, poor fit]. On to `CCSc1ccccc1C(=O)N1CCN(c2ccc([N+](=O)[O-])cc2)CC1`, for which the AC50 under setting [1] was 0.00355 µM [falling, full curve, poor fit]. For `CC[n+]1c(/C=C/N(C)c2ccccc2)oc2ccc(F)cc21`, the AC50 was 10 µM [rising, partial curve] under setting [2] and 12.6 µM [rising, partial curve] under setting [1]. As for `COc1cc2cc(CN(CCc3cccc(C)c3)C(=S)NCCCN3CCOCC3)c(=O)[nH]c2cc1OC`, the AC50 under setting [2] is 31.6 µM [falling, single point]. As to `Cc1sc2nc(SCC(=O)NCCOCCO)nc(N)c2c1C`, the half-maximal activity concentration (AC50) under setting [1] is 1.26 µM [falling, full curve]. As for `Cc1nc2ccc(NS(=O)(=O)c3c(C)c(C)cc(C)c3C)cc2s1`, the AC50 reads like this: under setting [2], 3.98 µM [rising, full curve]; under setting [1], 3.16 µM [rising, full curve]. As to `CC(C)C(c1nnnn1Cc1ccccc1)N(Cc1ccco1)Cc1cccs1` (configuration not stated), the AC50 under setting [2] was 11.2 µM [rising, partial curve] and the AC50 under setting [1] was 15.8 µM [rising, single point]. As to `Cc1ccc(S(=O)(=O)/C(C#N)=C/c2ccccc2OCc2ccccc2)cc1`, the AC50 is 35.5 µM [rising, single point] under setting [2] and 35.5 µM [rising, single point] under setting [1]. As for `O=C(CSc1nnc(CN2CCOCC2)n1-c1ccc(Cl)cc1)Nc1cc(Cl)ccc1O`, the half-maximal activity concentration (AC50) under setting [2] is 10 µM [rising, single point] and the AC50 under setting [1] is 17.8 µM [rising, single point].

In the case of `COc1ccc(-c2nc3ccccc3o2)cc1NC(=O)COc1ccc(C)c(C)c1`, the half-maximal activity concentration (AC50) was 35.5 µM [falling, single point] under setting [2] and 35.5 µM [falling, single point] under setting [1]. For the compound `CCc1ccc(-c2ccc(SCc3ccccn3)nn2)cc1`, the concentration at half-maximal activity (AC50) under setting [2] is 0.0251 µM [rising, full curve, poor fit]. In the case of `COc1ccc(Br)cc1CNC(=O)c1cc(=O)[nH]c2ccc(S(=O)(=O)N3CCCCC3C)cc12` (configuration not stated), the AC50 under setting [2] is 28.2 µM [falling, single point]. For `Cc1cccc(Nc2nc3c(s2)CCCC3)c1`, the AC50 under setting [1] is 14.1 µM [rising, partial curve]. In the case of `Cc1cc(NC2CCCCC2)nc(-c2ccccc2O)n1`, the AC50 runs as follows: under setting [2], 35.5 µM [rising, single point]; under setting [1], 35.5 µM [rising, single point]. Consider `COc1ccc2nc(NC(=O)CSc3ccccc3)sc2c1`, for which, under setting [2], the AC50 is 39.8 µM [rising, partial curve, poor fit].

On to `COc1ccc(NC(=O)c2c(NCc3cccc(F)c3)sc3c2CCC3)c(OC)c1`, for which the AC50 under setting [1] was 22.4 µM [falling, single point]. `O=C(c1ccccc1)c1c[nH]c2cc3c(cc2c1=O)OCCO3`: the AC50 under setting [1] was 15.8 µM [rising, single point].

On to `CCc1ccc(OCc2ccc(C(=O)NCc3ccccn3)o2)cc1`, for which the AC50 under setting [1] was 14.1 µM [rising, single point].

As to `CC(=O)N1CCc2[nH]c3ccccc3c2C1`, under setting [1], the AC50 was 14.1 µM [falling, partial curve, poor fit]. On to `Cc1noc(C)c1CSc1nnc2scc(-c3ccc(Cl)cc3)n12`, for which the half-maximal activity concentration (AC50) runs as follows: under setting [2], 12.6 µM [rising, partial curve, poor fit]; under setting [1], 11.2 µM [rising, partial curve, poor fit]. With `COc1ccc(-c2nsc(SCC(=O)NCC3CCCO3)n2)cc1` (configuration not stated), the half-maximal activity concentration (AC50) under setting [1] is 0.316 µM [falling, full curve]. For `CCCc1[nH]nc2c1C(c1ccoc1)C(C#N)=C(N)O2` (configuration not stated), the AC50 by setting is: under setting [2], 20 µM [rising, single point]; under setting [1], 12.6 µM [rising, single point]. With `C=CCN1N=C(c2ccc(NC(=O)c3ccccc3)cc2)CSC1=O`, the AC50 under setting [1] was 1.78 µM [falling, full curve, poor fit]. In the case of `CC(=O)Nc1ccc(SCC(=O)c2cc(C)n(-c3ccccc3F)c2C)cc1`, the concentration at half-maximal activity (AC50) reads like this: under setting [2], 7.94 µM [rising, partial curve, poor fit]; under setting [1], 11.2 µM [rising, partial curve]. As for `CCOC(=O)C1CN(C(C)(C)C)C(=O)C1=O` (configuration not stated), the half-maximal activity concentration (AC50) under setting [2] is 0.251 µM [falling, full curve, poor fit].

For `O=C(Nc1nc(-c2ccccn2)cs1)c1ncc(Cl)c(Cl)c1Cl`, the concentration at half-maximal activity (AC50) was 25.1 µM [falling, single point] under setting [2] and 35.5 µM [falling, partial curve] under setting [1]. On to `CC(C)c1ccc(NC(=O)CN(Cc2ccccc2)S(C)(=O)=O)cc1`, for which the AC50 under setting [1] was 0.501 µM [rising, partial curve]. Turning to `Cc1sc(-n2c(C)cc(/C=N/n3cnnc3)c2C)c(C#N)c1C`, the AC50 by setting is: under setting [2], 35.5 µM [rising, single point]; under setting [1], 17.8 µM [rising, single point]. In the case of `COc1ccc(-c2nc(NC(C)=O)sc2-c2ccc(OC)cc2)cc1`, under setting [1], the half-maximal activity concentration (AC50) was 1.26 µM [falling, single point]. `COc1ccc(O)c(/C=N\NC(=O)CCn2nnc3ccccc32)c1`: the concentration at half-maximal activity (AC50) under setting [1] is 31.6 µM [rising, single point]. On to `CCCn1c(CN(Cc2ccccc2)Cc2ccccc2)nc2c1c(=O)n(C)c(=O)n2C`, for which the half-maximal activity concentration (AC50) is 35.5 µM [rising, single point] under setting [2] and 35.5 µM [rising, single point] under setting [1]. Regarding `CSc1c(SCc2ccccc2)cnn(-c2ccccc2)c1=O`, under setting [1], the AC50 is 12.6 µM [rising, single point].

In the case of `Cc1ccc(-c2cc(C(F)F)n3ncc(C(=O)N4CCc5ccccc54)c3n2)cc1`, under setting [2], the AC50 was 0.0447 µM [falling, full curve, poor fit]. Consider `O=C1NC(NS(=O)(=O)c2ccccc2)(C(F)(F)F)C(=O)N1Cc1cccnc1` (configuration not stated), for which the AC50 under setting [1] was 0.562 µM [falling, single point]. `Cc1cc2cc(CNC(=O)c3cccc([N+](=O)[O-])c3)ccc2n1C`: the AC50 reads like this: under setting [2], 35.5 µM [rising, single point]; under setting [1], 28.2 µM [rising, single point]. With `CCOC(=O)c1sc2nc(NC(=O)C(C)(C)C)sc2c1C`, the concentration at half-maximal activity (AC50) under setting [1] was 35.5 µM [rising, single point].

As for `COc1ccc(O)c(C2=Nc3ccccc3N=C(c3cccs3)C2)c1`, the AC50 under setting [1] was 35.5 µM [rising, single point]. The same measure, in the same setting: for `CCOC(=O)c1ccc(N2C(=O)C(O)=C(C(C)=O)C2c2ccccc2)cc1` (configuration not stated) the value was 35.5 µM [rising, single point]. Consider `CCN(CC)S(=O)(=O)c1cccc(-c2nnc(SCCCC(=O)c3ccccc3)o2)c1`, for which the concentration at half-maximal activity (AC50) is 1.12 µM [rising, full curve, poor fit] under setting [2] and 12.6 µM [rising, partial curve] under setting [1]. For the compound `CCN1CCCC1CNC(=O)c1ccc(Sc2ccc(F)cc2)c([N+](=O)[O-])c1` (configuration not stated), the AC50 under setting [2] was 0.0251 µM [falling, full curve, poor fit].

On to `CNC(=O)c1ccc(-c2ccc(Cl)c(Cl)c2)s1`, for which the half-maximal activity concentration (AC50) under setting [1] is 14.1 µM [falling, partial curve, poor fit]. As for `O=C(CNc1ccccc1Cl)N/N=C1\CCCc2ccccc21`, the AC50 under setting [2] was 22.4 µM [falling, single point] and the half-maximal activity concentration (AC50) under setting [1] is 35.5 µM [falling, partial curve, poor fit]. With `O=C(C1CCCN(S(=O)(=O)c2ccccc2[N+](=O)[O-])C1)N1CCN(c2ccccc2)CC1` (configuration not stated), the concentration at half-maximal activity (AC50) under setting [1] is 3.55 µM [rising, partial curve, poor fit]. As to `CCc1nnc(NC(=O)Cc2c[nH]c3ccccc23)s1`, under setting [1], the AC50 was 0.501 µM [falling, full curve, poor fit]. `CNc1nc(-c2ccccc2)[n+](-c2ccc(C)cc2)s1`: the concentration at half-maximal activity (AC50) under setting [1] is 20 µM [rising, single point]. The same measure, in the same setting: then `O=[N+]([O-])c1ccc(Nc2nc(N/N=C/c3cccc(F)c3)nc(N3CCCC3)n2)cc1`, with 1.41 µM [rising, partial curve]. Take `Cc1ccc(C)n1-c1ccc(N2CCOCC2)nc1`: the AC50 reads like this: under setting [2], 35.5 µM [falling, single point]; under setting [1], 35.5 µM [falling, single point].

With `O=S(=O)(Nc1ccccn1)c1ccc(Oc2ccccc2)cc1`, the half-maximal activity concentration (AC50) is, setting by setting: under setting [2], 1.78 µM [rising, partial curve, poor fit]; under setting [1], 3.55 µM [rising, single point]. With `CN(Cc1ccccc1)CC(O)COc1ccc(CNCCc2ccncc2)cc1` (configuration not stated), the half-maximal activity concentration (AC50) was 17.8 µM [falling, partial curve, poor fit] under setting [2] and 0.794 µM [falling, partial curve, poor fit] under setting [1]. Turning to `Cc1ccc(-c2cc3cccc[n+]3cc2-c2ccc(C)cc2)cc1`, the AC50 is, setting by setting: under setting [2], 5.01 µM [rising, partial curve]; under setting [1], 6.31 µM [rising, full curve]. As for `CCn1c(COc2cccc(OC)c2)nnc1SCC(=O)Nc1cc(OC)ccc1OC`, under setting [1], the AC50 is 15.8 µM [rising, single point]. Take `CSc1ncc(C(=O)Nc2cc(C)cc(C)c2)c(-c2ccccc2)n1`: under setting [2], the AC50 is 0.0631 µM [falling, full curve]. On the same count and under the same terms, then `Cn1/c(=N/N=C/c2ccccn2)sc2ccccc21`, with 7.94 µM [falling, partial curve, poor fit].

The values are drawn from PubChem BioAssay AID1487 (National Center for Advancing Translational Sciences (NCATS), 2009).
